Assay results: PubChem BioAssay (EPA / NIEHS)
“And” between values parts separate entries of the source, which are not always exact repeats. Identical values can stand only once. The inconclusive results got no clear call from the source; some entries with a clear call stand among them for comparison. For some of these results: Potencies beside an inconclusive call are fits to weak or partial responses and may not hold up. The source holds several records for some structures; these can differ, active in one and inactive in another. The source made the active and inactive calls. The calls were made as follows: active = hit-call score of the fitted dose curve at least 0.9, where 1 is the maximum; inconclusive = response in the unintended direction; inactive = score below 0.9.

The chains behind the UniProt entries cited, without tags or fusion partners. Where a name states a change or a piece, a line headed by the entry shows the natural chain unless it says otherwise.
UniProt P57717: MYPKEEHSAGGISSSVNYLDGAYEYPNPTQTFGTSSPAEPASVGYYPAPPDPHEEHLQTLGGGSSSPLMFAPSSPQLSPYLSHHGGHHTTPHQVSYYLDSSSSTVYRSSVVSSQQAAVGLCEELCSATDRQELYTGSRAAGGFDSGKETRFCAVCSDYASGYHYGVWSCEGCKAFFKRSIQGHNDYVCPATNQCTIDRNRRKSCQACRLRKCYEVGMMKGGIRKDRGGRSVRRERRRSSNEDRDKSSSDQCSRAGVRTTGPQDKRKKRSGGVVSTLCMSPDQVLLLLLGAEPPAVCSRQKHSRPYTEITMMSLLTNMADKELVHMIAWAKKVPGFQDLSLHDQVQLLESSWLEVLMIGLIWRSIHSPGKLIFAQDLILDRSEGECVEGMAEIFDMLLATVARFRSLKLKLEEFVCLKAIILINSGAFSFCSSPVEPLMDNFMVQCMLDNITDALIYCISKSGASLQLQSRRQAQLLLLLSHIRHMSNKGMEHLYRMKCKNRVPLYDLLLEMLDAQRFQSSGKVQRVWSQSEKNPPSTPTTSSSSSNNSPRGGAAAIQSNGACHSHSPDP
UniProt P10828: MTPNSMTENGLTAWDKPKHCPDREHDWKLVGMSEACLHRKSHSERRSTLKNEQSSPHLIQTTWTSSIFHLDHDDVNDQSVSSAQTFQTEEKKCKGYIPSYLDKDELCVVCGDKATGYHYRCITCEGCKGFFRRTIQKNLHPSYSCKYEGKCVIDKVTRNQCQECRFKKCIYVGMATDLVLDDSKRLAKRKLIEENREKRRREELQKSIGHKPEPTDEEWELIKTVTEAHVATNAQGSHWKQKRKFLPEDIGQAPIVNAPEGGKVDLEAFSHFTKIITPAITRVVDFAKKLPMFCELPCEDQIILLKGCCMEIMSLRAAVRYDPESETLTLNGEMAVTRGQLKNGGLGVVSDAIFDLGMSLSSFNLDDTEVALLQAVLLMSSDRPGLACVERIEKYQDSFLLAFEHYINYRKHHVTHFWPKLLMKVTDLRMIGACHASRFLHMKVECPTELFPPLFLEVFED
UniProt Q13464: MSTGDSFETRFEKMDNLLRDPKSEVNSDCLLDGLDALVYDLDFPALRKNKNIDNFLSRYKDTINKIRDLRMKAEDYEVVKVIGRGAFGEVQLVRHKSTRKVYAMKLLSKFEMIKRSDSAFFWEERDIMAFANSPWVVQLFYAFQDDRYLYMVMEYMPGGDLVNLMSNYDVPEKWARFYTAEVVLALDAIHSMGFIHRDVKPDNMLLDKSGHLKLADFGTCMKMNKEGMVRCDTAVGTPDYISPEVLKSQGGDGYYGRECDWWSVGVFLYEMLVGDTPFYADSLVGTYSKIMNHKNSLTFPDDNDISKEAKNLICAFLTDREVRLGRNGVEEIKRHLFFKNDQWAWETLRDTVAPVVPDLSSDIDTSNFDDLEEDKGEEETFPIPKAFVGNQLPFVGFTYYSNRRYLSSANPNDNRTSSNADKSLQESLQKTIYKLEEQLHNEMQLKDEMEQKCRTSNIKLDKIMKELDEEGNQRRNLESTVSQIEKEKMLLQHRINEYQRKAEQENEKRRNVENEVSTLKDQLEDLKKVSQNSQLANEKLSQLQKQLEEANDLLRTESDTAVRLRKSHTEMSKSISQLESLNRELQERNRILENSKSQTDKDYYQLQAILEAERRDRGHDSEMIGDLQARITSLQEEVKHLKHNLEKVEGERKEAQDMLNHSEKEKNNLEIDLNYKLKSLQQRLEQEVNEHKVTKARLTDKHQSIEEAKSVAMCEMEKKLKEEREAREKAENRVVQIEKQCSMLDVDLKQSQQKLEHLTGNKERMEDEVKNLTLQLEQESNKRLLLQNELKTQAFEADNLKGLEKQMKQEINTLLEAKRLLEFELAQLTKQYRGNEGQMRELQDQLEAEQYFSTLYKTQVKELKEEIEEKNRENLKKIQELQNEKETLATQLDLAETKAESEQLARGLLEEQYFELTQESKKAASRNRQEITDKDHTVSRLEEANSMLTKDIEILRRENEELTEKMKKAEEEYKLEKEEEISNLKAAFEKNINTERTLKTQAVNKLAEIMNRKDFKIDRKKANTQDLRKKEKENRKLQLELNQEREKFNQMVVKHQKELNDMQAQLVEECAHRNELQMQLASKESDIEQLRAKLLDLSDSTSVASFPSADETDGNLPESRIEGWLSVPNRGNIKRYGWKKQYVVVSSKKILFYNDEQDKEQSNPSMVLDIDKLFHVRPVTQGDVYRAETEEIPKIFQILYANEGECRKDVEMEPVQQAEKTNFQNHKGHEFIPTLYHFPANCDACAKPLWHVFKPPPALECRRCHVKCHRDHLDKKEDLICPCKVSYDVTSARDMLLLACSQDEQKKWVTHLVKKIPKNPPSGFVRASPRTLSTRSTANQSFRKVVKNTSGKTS
UniProt P07948: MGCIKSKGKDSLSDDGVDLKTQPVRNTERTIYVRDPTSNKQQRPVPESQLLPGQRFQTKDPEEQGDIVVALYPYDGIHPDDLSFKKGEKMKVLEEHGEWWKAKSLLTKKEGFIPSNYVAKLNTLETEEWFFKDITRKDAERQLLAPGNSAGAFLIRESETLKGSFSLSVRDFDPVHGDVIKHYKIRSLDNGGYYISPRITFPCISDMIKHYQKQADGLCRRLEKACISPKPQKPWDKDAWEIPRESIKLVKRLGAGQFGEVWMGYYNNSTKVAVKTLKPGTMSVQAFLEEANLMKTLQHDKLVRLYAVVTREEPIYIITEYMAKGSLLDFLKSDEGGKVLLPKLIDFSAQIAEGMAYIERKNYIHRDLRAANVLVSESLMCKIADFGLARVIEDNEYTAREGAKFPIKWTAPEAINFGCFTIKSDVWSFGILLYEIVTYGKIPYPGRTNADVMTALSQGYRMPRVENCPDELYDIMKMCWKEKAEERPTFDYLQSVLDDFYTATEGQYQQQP
UniProt P21731: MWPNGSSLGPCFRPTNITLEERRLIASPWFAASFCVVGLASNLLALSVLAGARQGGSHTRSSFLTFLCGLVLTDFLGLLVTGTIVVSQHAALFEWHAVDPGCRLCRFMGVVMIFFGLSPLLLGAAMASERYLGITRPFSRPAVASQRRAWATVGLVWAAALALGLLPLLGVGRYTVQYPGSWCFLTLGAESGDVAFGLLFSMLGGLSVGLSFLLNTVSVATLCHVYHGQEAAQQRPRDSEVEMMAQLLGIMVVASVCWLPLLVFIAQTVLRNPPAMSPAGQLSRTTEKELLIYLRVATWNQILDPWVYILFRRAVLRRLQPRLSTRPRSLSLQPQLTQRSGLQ
UniProt O70528: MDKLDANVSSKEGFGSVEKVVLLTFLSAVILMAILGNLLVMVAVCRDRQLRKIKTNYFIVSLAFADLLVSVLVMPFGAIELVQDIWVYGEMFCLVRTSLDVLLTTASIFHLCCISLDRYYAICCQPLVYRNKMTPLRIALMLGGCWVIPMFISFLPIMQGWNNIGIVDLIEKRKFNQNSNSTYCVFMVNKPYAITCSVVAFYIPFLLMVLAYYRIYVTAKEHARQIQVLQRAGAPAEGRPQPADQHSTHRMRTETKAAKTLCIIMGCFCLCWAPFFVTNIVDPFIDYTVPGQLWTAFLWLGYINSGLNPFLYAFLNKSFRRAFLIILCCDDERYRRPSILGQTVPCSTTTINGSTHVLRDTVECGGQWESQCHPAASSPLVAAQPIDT
UniProt P10275: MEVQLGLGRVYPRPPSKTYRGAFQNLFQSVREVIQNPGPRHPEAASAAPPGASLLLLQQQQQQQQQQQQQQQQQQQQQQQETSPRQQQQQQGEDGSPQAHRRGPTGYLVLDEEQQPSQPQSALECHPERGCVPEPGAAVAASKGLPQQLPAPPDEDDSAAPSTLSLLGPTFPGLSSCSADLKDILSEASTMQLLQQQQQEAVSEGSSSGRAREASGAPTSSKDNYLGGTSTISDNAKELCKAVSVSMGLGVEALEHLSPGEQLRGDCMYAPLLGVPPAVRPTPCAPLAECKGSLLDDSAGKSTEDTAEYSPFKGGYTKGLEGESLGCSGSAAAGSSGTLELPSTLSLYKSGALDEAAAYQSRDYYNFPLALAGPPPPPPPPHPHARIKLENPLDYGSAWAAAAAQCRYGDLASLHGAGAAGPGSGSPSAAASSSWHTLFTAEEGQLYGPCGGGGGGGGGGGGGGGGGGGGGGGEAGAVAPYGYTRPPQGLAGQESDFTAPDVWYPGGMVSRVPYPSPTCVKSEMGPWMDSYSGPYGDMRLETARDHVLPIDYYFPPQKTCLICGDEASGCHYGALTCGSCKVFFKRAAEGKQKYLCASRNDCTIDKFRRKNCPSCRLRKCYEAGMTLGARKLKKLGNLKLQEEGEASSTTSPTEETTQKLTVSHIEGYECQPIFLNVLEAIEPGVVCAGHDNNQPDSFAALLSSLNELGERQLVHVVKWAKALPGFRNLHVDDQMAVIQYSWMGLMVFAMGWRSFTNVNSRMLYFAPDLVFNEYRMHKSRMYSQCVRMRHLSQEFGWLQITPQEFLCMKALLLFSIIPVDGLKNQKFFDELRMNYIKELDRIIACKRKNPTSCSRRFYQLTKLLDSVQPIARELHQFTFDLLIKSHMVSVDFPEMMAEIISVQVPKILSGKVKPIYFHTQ
UniProt P06213, whole entry, looked up: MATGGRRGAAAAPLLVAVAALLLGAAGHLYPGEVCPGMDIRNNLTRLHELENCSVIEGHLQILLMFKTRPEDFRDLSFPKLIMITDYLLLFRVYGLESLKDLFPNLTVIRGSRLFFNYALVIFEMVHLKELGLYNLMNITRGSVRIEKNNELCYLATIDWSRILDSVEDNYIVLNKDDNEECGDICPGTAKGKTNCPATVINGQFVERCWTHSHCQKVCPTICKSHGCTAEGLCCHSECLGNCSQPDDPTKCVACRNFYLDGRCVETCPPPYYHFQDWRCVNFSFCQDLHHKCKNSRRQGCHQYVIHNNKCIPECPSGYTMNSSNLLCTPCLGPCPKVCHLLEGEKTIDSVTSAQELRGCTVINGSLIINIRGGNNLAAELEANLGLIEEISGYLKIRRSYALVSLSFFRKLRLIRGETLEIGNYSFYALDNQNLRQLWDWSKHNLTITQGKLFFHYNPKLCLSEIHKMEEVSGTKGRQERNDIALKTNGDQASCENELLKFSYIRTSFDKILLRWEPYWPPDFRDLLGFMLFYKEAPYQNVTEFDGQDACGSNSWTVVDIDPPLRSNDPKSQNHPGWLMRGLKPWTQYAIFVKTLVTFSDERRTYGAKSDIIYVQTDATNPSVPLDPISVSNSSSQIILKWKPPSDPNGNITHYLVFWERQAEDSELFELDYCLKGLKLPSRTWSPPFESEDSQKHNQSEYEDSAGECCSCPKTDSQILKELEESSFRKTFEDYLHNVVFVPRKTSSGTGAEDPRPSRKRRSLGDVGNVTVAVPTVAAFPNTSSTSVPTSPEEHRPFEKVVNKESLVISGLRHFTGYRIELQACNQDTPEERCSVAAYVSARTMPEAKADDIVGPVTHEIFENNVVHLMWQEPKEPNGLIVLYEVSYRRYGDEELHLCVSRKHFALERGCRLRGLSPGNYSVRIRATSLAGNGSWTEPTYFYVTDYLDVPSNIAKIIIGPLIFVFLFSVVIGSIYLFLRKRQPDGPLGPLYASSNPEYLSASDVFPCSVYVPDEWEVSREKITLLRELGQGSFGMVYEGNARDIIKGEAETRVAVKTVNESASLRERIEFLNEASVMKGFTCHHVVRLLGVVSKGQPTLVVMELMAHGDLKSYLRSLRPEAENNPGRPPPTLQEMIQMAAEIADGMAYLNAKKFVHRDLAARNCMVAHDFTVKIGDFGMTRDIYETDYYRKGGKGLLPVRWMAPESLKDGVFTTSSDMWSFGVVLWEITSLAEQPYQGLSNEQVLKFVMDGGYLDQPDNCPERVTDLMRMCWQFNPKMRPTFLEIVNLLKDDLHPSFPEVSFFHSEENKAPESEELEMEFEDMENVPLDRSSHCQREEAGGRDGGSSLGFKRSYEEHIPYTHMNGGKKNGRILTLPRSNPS

Experiments:
[1] = Tanguay_ZF_120hpf_SNOU_legacy: (Legacy) Oregon State University Tanguay Lab 120 Hour Post-fertilization zebrafish Assay for Snout Malformation (AID 2283637)
Outline: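 Binary brightfield scoring of snout malformation at 120 hpf. Dechorionated 5D wild-type embryos, one per well, static exposure from 6 hpf at 28C, sealed and dark; final DMSO 0.64% (vol/vol), DMSO as baseline; 5uM trimethyltin chloride positive control.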

[2] = Tanguay_ZF_120hpf_OTIC_legacy: (Legacy) Oregon State University Tanguay Lab 120 Hour Post-fertilization zebrafish Assay for Otic Vesicle Malformation (AID 2283639)
Outline: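 Statically exposed wild-type 5D zebrafish embryos, kept sealed and dark at 28C through 120 hours post fertilization, were examined by brightfield microscopy for otic vesicle defects. Responses were recorded as present or absent and analysed relative to DMSO.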

[3] = test system: SRY-box transcription factor 17 (SOX17) Protein Expression, Deisenroth Lab, SOX17 (gene 64321); experiment: CCTE_Deisenroth_DEVTOX-GLR_Pluri_SOX17: CCTE's DevTox GLR-Pluri Assay Evaluation of SRY-box transcription factor 17 (SOX17) Protein Expression, Deisenroth Lab (AID 2284427)
Outline: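 RUES2-GLR pluripotent cells were induced toward endoderm over 48 h and received two compound doses 24 h apart, in a 10-point series from 1 nM to 200 uM. The percentage of SOX17+ cells among total cells was measured by high-content imaging and reported minus the 0.2% DMSO control.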

[4] = target: zebrafish Estrogen Receptor (ER1), esr1 (gene 259252) (UniProt P57717); experiment: ATG_zfER1_XSP2: Attagene TRANS-FACTORIAL Multi-Species (XSP2) HepG2 Assay for zebrafish Estrogen Receptor (ER1) (AID 2283816)
Outline: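 After 24 h compound exposure, RNA from transfected HepG2 cells was reverse-transcribed and reporter transcripts resolved by capillary electrophoresis. The TRANS format reads exogenous zebrafish ER1-Gal4 chimera activity on GAL4-UAS elements; gain of signal against DMSO.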

[5] = target: Nuclear receptor subfamily 1 group I member 2 (Mus musculus) (UniProt O54915); experiment: ATG_mPXR_XSP2: Attagene TRANS-FACTORIAL Multi-Species (XSP1) HepG2 Assay for mouse Pregnane X Receptor (PXR) (AID 2283831)
Outline: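 HepG2 cells transiently transfected with GAL4-UAS reporter units expressing chimeric NR-Gal4 proteins; 24 h compound exposure. Reporter mRNA quantified by RT-PCR and capillary electrophoresis fluorescence; gain of signal fitted against DMSO.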

[6] = target: human Thyroid hormone Receptor beta (TRb), THRB (gene 7068) (UniProt P10828); experiment: ATG_hTRb_XSP2: Attagene TRANS-FACTORIAL Multi-Species (XSP2) HepG2 Assay for human Thyroid hormone Receptor beta (TRb) (AID 2283840);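 also: actives raise reporter mRNA so potency reflects agonist-like gain of signal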
Outline: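 HepG2 transiently transfected with a multi-species panel including a human TRb–Gal4 chimera driving Gal4-UAS reporters; medium contained 3 nM 6-alpha-fluorotestosterone and 1.5 nM norgestrel. 24 h dosing; RT-PCR/capillary electrophoresis readout; positive-direction fit vs DMSO.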

[7] = target: human Rho Associated Coiled-coil Containing Protein Kinase 1 (ROCK1), ROCK1 (gene 6093) (UniProt Q13464); experiment: NVS_ENZ_hROCK1: NovaScreen (NVS) Enzymatic Assay for human Rho Associated Coiled-coil Containing Protein Kinase 1 (ROCK1) (AID 2283214)
Outline: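 Compounds first run in duplicate at 25 uM against recombinant human ROCK1, then followed in concentration series. Kinase activity was read 1 h post-dosing by fluorescence with mobility-shift separation, as signal loss relative to DMSO.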

[8] = IUF_NPC5_oligodendrocyte_differentiation_120hr: Leibniz Research Institute for Environmental Medicine (IUF) 120-hour Oligodendrocyte Differentiation Assay (NPC5) (AID 2284304);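 also: primary human fetal neural progenitor spheres plated to migrate and differentiate; share of O4-positive cells among Hoechst nuclei found by CNN image analysis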
Outline: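 Human fetal neural progenitor spheres (0.3 mm) plated on poly-D-lysine/laminin in N2 differentiation medium and exposed for 120 h at 7 concentrations, with half-medium renewal at day 3. O4-positive cells identified by CNN, expressed as percent of Hoechst nuclei.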

[9] = CCTE_Mundy_HCI_iCellGluta_NOG_NeuronCount: CCTE's Neurite Outgrowth Assay in iCellGluta cells for Neuron Count, Mundy Lab (AID 2284340);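 also: cells fixed about 48 h after compound addition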
Outline: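 Neuron count read by automated high-content imaging of Hoechst 33342 and betaIII-tubulin/Alexa Fluor-488 labelling in human iPSC glutamatergic neurons. Activity fitted relative to DMSO.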

[10] = test system: Brachyury (BRA) Protein Expression, Deisenroth Lab, TBXT (gene 6862); experiment: CCTE_Deisenroth_DEVTOX-GLR_Pluri_BRA: CCTE's DevTox GLR-Pluri Assay Evaluation of Brachyury (BRA) Protein Expression, Deisenroth Lab (AID 2284429)
Outline: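 RUES2-GLR reporter line; 48 h mesoderm differentiation; two exposures, 24 h apart; 1 nM - 200 uM, 10 points; nuclear stain, high-content imaging, 5 fields/well; endpoint = %BRA+ cells of total count minus 0.2% DMSO; n=4.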

[11] = CCTE_Deisenroth_AIME_96WELL_CTox_Inactive: Cytotoxicity Assessment (CTOX) in CCTE's 96-well Estrogen Receptor Transactivation Assay without AIME metabolic competence (metabolism negative), Deisenroth Lab (AID 2284029)
Outline: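 Metabolism-negative mode: alginate-water lids without rat S9, 2 h pre-incubation of 10-point series (0.002 - 200 uM). Conditioned medium on VM7Luc4E2 cells 24 h; loss of fluorescent live-cell protease signal marks cytotoxicity.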

[12] = target: human LYN Proto-Oncogene, Src family Tyrosine Kinase (LynA), LYN (gene 4067) (UniProt P07948); experiment: NVS_ENZ_hLynA: NovaScreen (NVS) Enzymatic Assay for human LYN Proto-Oncogene, Src family Tyrosine Kinase (LynA) (AID 2283173)
Outline: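 Recombinant kinase with fluorescent substrate; product separated from substrate by electrophoretic mobility shift and read 1 h after dosing. Duplicate screen at 25 uM, then concentration-response up to 50 uM; activity scored as signal loss against DMSO.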

[13] = target: human Thromboxane A2 Receptor (TXA2), TBXA2R (gene 6915) (UniProt P21731); experiment: NVS_GPCR_hTXA2: NovaScreen (NVS) G Protein-Coupled Receptor Assay for human Thromboxane A2 Receptor (TXA2) (AID 2283282);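 also: actives reduce bound radioligand signal relative to DMSO baseline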
Outline: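 Cell-free radioligand binding with human platelet-derived receptor; 1 h after dosing, filter-based scintillation counting, loss of signal vs DMSO. Primary screen in duplicate at 25 uM.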

[14] = target: guinea pig Serotonin, 5-Hydroxytryptamine Receptor 4 (5HT4), HTR4 (gene 100135548) (UniProt O70528); experiment: NVS_GPCR_g5HT4: NovaScreen (NVS) G Protein-Coupled Receptor Assay for guinea pig Serotonin, 5-Hydroxytryptamine Receptor 4 (5HT4) (AID 2283294)
Outline: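 Compounds first screened in duplicate at 25 uM, actives followed up in concentration series. Binding measured as displacement of specific radioligand from guinea pig striatal membranes, 1 h, filter-based scintillation read-out versus DMSO baseline.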

[15] = target: Androgen Receptor/SRC-1 Co-activator, AR (gene 367) (UniProt P10275); experiment: OT_AR_ARSRC1_0480: Odyssey Thera (OT) 8-hour HEK293T Protein-Complementation Assay for Androgen Receptor/SRC-1 Co-activator (AID 2283354);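 also: hits raise the complementation signal above DMSO so AC50 marks enhancers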
Outline: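 Split-Venus PCA, stable HEK293T, AR/SRC-1 fusions; 8 h exposure. Readout: 488nm N/C fluorescence ratio, ≥400 cells/image; fitted upward vs DMSO baseline.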

AR (gene 367) = AR (gene 367) (UniProt P10275); experiment: ACEA_AR_agonist_80hr: ACEA Biosciences xCELLigence Real-Time Cell Analysis on Androgen Receptor Agonism for Proliferation (AID 2283783);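 also: hits increase impedance growth signal above DMSO baseline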
Outline: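 Impedance (RT-CES) growth signal at 80 h post-dose; 22Rv1 cells, 8-pt 1:4 series, top 100 uM final, DMSO ≤0.5%; duplicate plates; gain-of-signal fit relative to DMSO baseline.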

[16] = CCTE_Simmons_CellTiterGLO_HEK293T: Viability Assessment in CCTE's Assays for Thyroperoxidase (TPO) Inhibition, Simmons Lab (AID 2283665);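 also: cells exposed to compound for 24 h before readout; actives reduce ATP signal below DMSO vehicle meaning cytotoxicity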
Outline: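 Cells were seeded overnight, then exposed to an eight-point series up to 87.5 uM final for 24 hours. CellTiter-Glo reagent was added and luminescence read after 20 min, giving ATP-based viability versus DMSO.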

[17] = CCTE_Mundy_HCI_hNP1_CellTiter: CCTE's Cell Titer-Glo 2 Assay in human neuroprogenitor cells for Viability, Mundy Lab (AID 2284241);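 also: a hit is a drop in ATP luminescence versus DMSO meaning reduced viability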
Outline: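 Viability read as luminescent ATP content (CellTiter-Glo, 30 min room temperature) twenty-four hours after dosing, relative to DMSO. Cells: WA09-derived hNP1 neuroprogenitors on poly-L-ornithine/laminin, plated 40 to 44 hours before chemical.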

[18] = target: human Matrix Metalloproteinase-9 (MMP9), MMP9 (gene 4318) (UniProt P14780); experiment: NVS_ENZ_hMMP9: NovaScreen (NVS) Enzymatic Assay for human Matrix Metalloproteinase-9 (MMP9) (AID 2283190);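 also: cell-free recombinant MMP9 protease activity read by fluorescent substrate signal; active means inhibition seen as loss of fluorescence signal versus DMSO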
Outline: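 Inhibition was scored as loss of fluorescence signal against DMSO controls. The recombinant protease was exposed to chemicals for 1 hour before reading; initial testing used 25 uM in duplicate.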

[19] = target: human Insulin Receptor (InsR), INSR (gene 3643) (UniProt P06213); experiment: NVS_ENZ_hInsR: NovaScreen (NVS) Enzymatic Assay for human Insulin Receptor (InsR) (AID 2283168)
Outline: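 Cell-free enzyme assay read 1 h post-dose by fluorescence after substrate/product mobility-shift separation. Duplicate 25 uM primary screen, then singleton concentration-response up to 50 uM for compounds passing threshold; loss of signal vs DMSO.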

CCCCC=O
AC50 [1]: active: 44.9 µM | AC50 [2]: inconclusive: 121 µM

C[C@](N)(Cc1ccc(O)c(O)c1)C(=O)O
AC50 [3]: inconclusive: 3.34 µM

CC(C)(C)c1ccc(S)cc1
outcome [4]: inactive | outcome [5]: inactive | AC50 [6]: inconclusive: 100 µM

O=C1NS(=O)(=O)c2ccccc21
AC50 [7]: inconclusive: 23.8 µM | AC50 [8]: inconclusive: 17.2 µM | AC50 [9]: inconclusive: 0.00292 µM | outcome [10]: inactive

COc1ccc(-c2coc3cc(O)ccc3c2=O)cc1
AC50 [11]: inconclusive: 9.13 µM

CCCCCC(=O)O
AC50 [12]: inconclusive: 586 nM | AC50 [7]: inconclusive: 25 µM | AC50 [13]: inconclusive: 25 µM | AC50 [14]: inconclusive: 6.91 µM | AC50 [15]: inconclusive: 50 µM | AC50 (AR (gene 367)): inconclusive: 50 µM

Cc1noc(NS(=O)(=O)c2ccc(N)cc2)c1C
AC50 [9]: inconclusive: 0.00416 µM

c1ccc2c(c1)c1cccc3ccc4cccc2c4c31
AC50 [16]: inconclusive: 0.0399 µM

CC1(C)S[C@@H]2[C@H](NC(=O)[C@H](N)c3ccccc3)C(=O)N2[C@H]1C(=O)O
AC50 [17]: inconclusive: 0.852 nM

O=C(O)c1ccccc1O
outcome [10]: inactive

Cc1ccc(C(C)(C)O)cc1
AC50 [18]: active: 4.24 µM

CC/C(=C(\c1ccccc1)c1ccc(OCCN(C)C)cc1)c1ccccc1
outcome [19]: inactive | AC50 [4]: inconclusive: 5.55 µM | outcome [6]: inactive

N[C@@H](Cc1c[nH]c2ccccc12)C(=O)O
AC50 [1]: inconclusive: 175 µM

CC/C(=C(/CC)c1ccc(O)cc1)c1ccc(O)cc1
AC50 [13]: active: 15.3 µM

Cc1cccc(C(C)(C)C)c1O
AC50 [11]: inconclusive: 100 µM

C[C@]12CC[C@@H]3c4ccc(O)cc4CC[C@H]3[C@@H]1C[C@@H](O)[C@@H]2O
outcome [5]: inactive

O=C(O)CC(O)C(=O)O (stereo not given)
AC50 [2]: inconclusive: 35 µM

S=C(S)NCCNC(=S)S.[Mn+2].[S-]C([S-])=NCCN=C([S-])[S-].[Zn+2]
AC50 [19]: inconclusive: 6.58 µM and inconclusive: 3.55 µM | AC50 [12]: inconclusive: 36.4 nM and inconclusive: 31.3 nM and inconclusive: 267 nM | AC50 [18]: inconclusive: 0.42 µM | outcome [14]: inactive | AC50 [17]: inconclusive: 0.0501 nM

CC(=O)OCc1ccccc1
outcome [15]: inactive | AC50 (AR (gene 367)): inconclusive: 1.04 µM

O=C(O)c1cc(N=Nc2ccc(S(=O)(=O)Nc3ccccn3)cc2)ccc1O
outcome [3]: inactive

S=C([S-])NCCNC(=S)[S-].[Mn+2]
AC50 [16]: inconclusive: 0.0024 µM | outcome [8]: inactive
